Measurements from patent publication US10370436B2, “Anti-pseudomonas Psl binding molecules and uses thereof” (priority 2011, dated 2019).
Some results were stated once for a whole list of compounds, not compound by compound.

Test system: P. aeruginosa PAO1.lux association with A549 cells
Test: Cell attachment assay, PAO1.lux to A549 cells
Format: cell-based, Pseudomonas aeruginosa
Details: MOI of 10, A549 cells, FIG. 4
Procedure: Anti-Psl antibodies were added to a confluent monolayer of A549 cells (an adenocarcinoma human alveolar basal epithelial cell line) grown in opaque 96-well plates (Nunc Nunclon Delta). Log-phase luminescent P. aeruginosa PAO1 strain (PAO1.lux) was added at an MOI of 10. After incubation of PAO1.lux with A549 cells at 37° C. for 1 hour, the A549 cells were washed, followed by addition of LB+0.5% glucose. Bacteria were quantified following a brief incubation at 37° C. as performed in the OPK assay described in Example 2. Measurements from wells without A549 cells were used to correct for non-specific binding.

B1: WapR-004: anti-Psl antibody, VH SEQ ID NO: 11 and VL SEQ ID NO: 12 (antibody, V domains shown)
VH: EVQLLESGPGLVKPSETLSLTCNVAGGSISPYYWTWIRQPPGKGLELIGYIHSSGYTDYNPSLKSRVTISGDTSKKQFSLHVSSVTAADTAVYFCARGDWDLLHALDIWGQGTLVTVSS
VL: EIVLTQSPSSLSTSVGDRVTITCRASQSIRSHLNWYQQKPGKAPKLLIYGASNLQSGVPSRFSGSGSGTDFTLTISSLQPEDFATYYCQQSYSFPLTFGGGTKLEIK
modifications: WapR-004 VH; WapR-004 & WarR-004RAD VL
In the case of B1, the “reduction of P. aeruginosa cell attachment compared to the negative control” value is reported as at most 80%.
